Results on 23 targets are retold here after the supplement of paper PMC10849652.

Sequences of proteins named here, by UniProt entry; tags and fusion partners are left off. A change or cut given only in a name is not applied to a line headed by its entry.
UniProt P61758, whole entry, looked up: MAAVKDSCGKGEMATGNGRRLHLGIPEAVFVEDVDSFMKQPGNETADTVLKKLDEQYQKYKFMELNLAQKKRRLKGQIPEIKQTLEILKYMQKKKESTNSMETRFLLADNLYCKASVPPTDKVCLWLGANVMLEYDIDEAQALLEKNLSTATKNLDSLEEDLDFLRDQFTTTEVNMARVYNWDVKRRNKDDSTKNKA
UniProt Q9UDW1: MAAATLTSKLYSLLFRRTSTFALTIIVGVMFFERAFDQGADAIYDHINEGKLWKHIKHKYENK
UniProt Q9UPU5: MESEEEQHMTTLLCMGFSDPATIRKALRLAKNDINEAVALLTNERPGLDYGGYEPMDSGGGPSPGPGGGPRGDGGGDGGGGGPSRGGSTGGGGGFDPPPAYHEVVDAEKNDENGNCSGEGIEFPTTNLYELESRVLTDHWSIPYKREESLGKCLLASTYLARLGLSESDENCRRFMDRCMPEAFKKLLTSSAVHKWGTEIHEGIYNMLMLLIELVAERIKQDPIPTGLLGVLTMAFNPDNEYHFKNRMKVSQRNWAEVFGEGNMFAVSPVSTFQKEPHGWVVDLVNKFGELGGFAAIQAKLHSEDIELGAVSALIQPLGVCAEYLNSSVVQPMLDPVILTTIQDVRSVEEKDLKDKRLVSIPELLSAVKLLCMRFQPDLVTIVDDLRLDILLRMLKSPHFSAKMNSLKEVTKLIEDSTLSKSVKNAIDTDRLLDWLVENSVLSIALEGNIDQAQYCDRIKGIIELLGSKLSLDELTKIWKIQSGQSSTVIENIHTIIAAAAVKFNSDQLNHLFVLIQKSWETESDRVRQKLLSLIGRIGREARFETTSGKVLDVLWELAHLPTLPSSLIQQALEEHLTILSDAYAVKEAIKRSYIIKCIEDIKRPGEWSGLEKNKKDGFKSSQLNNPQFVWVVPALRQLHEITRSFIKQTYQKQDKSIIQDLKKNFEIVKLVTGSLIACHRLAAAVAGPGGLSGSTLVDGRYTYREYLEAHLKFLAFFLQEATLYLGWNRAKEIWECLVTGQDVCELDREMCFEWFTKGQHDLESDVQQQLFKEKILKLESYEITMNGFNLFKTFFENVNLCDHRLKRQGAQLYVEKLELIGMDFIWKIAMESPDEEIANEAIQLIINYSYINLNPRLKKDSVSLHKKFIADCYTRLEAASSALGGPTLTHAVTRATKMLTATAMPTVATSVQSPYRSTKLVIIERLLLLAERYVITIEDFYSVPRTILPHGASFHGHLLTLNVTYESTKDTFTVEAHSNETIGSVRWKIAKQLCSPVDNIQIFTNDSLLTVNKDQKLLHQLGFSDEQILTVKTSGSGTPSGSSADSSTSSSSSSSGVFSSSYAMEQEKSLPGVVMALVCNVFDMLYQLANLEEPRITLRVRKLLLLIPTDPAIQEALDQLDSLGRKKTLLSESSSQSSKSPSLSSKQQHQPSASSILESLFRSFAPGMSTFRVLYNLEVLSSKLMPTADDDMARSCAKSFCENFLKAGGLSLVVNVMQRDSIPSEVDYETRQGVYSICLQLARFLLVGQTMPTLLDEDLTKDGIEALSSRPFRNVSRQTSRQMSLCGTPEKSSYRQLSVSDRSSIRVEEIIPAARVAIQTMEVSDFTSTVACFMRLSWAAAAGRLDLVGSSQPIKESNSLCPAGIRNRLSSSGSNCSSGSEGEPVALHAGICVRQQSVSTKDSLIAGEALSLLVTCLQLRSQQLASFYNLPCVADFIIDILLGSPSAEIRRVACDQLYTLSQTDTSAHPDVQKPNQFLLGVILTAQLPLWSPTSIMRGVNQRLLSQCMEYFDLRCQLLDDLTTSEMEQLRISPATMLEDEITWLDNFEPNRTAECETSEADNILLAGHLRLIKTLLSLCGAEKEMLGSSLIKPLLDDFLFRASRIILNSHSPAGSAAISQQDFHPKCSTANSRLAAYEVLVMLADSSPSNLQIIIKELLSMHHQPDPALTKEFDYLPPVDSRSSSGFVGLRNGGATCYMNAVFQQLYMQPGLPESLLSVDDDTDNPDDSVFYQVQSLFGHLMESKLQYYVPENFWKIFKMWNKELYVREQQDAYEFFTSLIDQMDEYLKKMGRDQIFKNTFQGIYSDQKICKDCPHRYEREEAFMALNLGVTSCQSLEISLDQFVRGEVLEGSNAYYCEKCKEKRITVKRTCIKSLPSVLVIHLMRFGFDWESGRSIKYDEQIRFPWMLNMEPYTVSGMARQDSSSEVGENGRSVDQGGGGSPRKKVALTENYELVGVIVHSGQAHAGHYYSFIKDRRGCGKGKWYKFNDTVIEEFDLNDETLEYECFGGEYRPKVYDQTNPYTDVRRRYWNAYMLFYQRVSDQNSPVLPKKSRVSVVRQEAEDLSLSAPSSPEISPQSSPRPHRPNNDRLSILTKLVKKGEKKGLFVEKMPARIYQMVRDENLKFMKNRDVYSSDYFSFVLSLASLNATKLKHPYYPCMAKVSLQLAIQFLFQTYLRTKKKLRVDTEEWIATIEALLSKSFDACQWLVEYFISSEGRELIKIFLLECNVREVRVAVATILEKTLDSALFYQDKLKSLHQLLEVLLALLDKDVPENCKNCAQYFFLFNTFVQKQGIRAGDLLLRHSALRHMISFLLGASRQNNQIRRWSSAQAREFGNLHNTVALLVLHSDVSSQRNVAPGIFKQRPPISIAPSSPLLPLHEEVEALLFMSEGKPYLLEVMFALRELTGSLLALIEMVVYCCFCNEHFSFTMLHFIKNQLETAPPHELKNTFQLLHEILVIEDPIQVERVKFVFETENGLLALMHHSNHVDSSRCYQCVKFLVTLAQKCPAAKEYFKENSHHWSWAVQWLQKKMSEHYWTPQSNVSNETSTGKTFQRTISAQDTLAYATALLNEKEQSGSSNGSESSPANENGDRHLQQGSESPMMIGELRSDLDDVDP
UniProt Q9NZ43: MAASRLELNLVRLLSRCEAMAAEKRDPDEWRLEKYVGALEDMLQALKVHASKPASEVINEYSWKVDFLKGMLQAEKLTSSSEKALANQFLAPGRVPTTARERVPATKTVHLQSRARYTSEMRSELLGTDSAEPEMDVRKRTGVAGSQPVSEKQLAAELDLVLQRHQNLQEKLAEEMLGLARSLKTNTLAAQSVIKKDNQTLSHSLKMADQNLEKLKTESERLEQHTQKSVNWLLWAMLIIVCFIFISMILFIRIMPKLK
UniProt Q92575: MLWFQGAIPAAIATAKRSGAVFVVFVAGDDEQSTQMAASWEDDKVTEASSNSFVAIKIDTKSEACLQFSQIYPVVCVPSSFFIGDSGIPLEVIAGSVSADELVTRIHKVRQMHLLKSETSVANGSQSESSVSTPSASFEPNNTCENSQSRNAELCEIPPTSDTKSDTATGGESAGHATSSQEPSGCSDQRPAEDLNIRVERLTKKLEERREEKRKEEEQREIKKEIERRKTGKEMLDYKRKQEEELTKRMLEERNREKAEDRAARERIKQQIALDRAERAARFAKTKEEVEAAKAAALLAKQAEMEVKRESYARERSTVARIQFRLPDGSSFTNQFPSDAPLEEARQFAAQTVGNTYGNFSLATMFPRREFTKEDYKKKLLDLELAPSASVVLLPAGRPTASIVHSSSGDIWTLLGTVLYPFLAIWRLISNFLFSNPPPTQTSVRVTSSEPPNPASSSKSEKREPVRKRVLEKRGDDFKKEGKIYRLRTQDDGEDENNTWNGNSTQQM
UniProt P61960, whole entry, looked up: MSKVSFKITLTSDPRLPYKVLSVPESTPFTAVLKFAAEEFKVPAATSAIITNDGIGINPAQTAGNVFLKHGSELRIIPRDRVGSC
UniProt Q8TED0: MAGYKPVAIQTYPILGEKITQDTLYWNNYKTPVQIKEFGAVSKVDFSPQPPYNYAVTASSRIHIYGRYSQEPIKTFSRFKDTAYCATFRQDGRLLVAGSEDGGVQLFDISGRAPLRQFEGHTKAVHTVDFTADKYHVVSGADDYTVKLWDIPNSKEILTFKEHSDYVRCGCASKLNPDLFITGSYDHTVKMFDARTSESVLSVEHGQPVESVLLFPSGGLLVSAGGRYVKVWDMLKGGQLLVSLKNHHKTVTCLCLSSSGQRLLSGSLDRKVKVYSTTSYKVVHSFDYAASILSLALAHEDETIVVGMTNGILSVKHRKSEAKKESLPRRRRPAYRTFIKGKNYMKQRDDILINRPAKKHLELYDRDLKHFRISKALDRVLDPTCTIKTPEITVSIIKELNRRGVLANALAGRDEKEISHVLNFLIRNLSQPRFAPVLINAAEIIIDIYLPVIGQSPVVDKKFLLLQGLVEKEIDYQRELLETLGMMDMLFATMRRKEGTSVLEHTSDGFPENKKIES
UniProt Q8TAA9: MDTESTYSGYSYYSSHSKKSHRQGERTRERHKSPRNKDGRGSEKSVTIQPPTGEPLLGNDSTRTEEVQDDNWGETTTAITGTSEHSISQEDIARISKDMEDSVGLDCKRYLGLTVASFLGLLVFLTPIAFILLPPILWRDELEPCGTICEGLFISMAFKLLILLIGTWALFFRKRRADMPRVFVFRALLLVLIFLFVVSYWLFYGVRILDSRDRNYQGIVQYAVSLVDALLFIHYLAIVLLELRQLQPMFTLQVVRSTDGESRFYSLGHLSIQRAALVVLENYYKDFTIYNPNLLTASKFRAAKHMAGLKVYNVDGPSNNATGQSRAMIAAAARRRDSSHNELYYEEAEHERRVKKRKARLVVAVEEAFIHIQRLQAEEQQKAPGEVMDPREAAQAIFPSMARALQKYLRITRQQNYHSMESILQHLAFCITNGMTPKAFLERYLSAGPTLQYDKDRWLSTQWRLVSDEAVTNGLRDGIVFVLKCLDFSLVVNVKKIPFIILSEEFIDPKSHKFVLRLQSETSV
UniProt O75379: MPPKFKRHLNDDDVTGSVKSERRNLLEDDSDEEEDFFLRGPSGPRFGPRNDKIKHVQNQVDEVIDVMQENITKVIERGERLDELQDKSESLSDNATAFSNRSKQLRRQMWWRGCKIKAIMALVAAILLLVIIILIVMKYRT
UniProt P22695: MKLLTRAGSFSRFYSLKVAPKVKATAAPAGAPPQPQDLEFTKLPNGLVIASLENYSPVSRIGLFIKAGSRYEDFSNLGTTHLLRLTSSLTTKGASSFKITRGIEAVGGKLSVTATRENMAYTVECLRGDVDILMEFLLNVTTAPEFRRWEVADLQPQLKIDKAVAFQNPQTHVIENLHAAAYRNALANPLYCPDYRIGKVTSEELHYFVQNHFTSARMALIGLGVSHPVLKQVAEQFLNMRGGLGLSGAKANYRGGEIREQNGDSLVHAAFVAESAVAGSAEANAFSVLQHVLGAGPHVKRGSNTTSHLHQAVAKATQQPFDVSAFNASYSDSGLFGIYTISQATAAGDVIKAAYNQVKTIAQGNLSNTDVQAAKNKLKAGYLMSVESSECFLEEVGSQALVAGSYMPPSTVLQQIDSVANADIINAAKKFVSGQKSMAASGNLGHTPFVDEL
UniProt Q9C0B0: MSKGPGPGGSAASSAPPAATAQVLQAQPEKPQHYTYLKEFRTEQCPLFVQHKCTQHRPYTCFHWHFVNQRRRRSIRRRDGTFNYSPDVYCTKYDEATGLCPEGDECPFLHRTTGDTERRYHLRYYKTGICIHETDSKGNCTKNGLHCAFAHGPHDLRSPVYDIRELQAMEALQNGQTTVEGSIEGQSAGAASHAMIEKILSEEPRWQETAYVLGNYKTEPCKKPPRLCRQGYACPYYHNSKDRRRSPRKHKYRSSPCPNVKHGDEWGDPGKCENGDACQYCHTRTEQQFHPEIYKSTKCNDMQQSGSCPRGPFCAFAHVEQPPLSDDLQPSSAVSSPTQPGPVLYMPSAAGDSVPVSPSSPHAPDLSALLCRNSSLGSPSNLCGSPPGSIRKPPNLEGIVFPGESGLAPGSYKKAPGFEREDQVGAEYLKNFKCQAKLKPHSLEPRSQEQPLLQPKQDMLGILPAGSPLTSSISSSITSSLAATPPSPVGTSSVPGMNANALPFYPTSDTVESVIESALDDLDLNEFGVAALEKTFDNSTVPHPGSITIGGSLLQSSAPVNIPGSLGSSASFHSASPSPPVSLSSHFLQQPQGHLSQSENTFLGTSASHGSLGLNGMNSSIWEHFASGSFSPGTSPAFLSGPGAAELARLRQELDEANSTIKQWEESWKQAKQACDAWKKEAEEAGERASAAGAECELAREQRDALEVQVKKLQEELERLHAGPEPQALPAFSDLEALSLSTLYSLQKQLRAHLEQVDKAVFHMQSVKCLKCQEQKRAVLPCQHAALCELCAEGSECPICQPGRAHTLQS
UniProt Q96LJ8: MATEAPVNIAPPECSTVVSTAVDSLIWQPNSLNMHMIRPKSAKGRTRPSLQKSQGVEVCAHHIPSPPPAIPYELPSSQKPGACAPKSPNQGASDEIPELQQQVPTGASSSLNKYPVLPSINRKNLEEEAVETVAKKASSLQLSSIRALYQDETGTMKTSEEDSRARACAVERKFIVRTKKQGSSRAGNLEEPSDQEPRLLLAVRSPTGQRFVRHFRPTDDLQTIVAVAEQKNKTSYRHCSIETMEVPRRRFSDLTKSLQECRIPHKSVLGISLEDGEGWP

The list shows a part of the results.

Compound in this test: CC1=C(SC2=C1C(=N[C@H](C3=NN=C(N32)C)CC(=O)N)C4=CC=C(C=C4)Cl)C
Description: log2 fold change, soluble protein after heating vs DMSO (PISA); higher = thermal stabilisation; K562 cells, 10 uM, 30 min; active = over 0.2 and 3.5 SD of the protein, either way, in both replicates (recomputed). The method, boiled down:
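Values are thermal stability changes relative to control samples and are taken from duplicates. They are stated as log2 fold changes. Before quantification by TMTpro 16plex LC-MS/MS with equalised channel sums, K562 cells at 2×10^6 cells/mL were treated with 10 μM compound for 30 min, heated in aliquots for 3 min across 48°C-58°C, pooled, extracted in PBS with 0.5% NP-40 at 4°C, and centrifuged at 21,000xg for 90 min to give the soluble supernatant.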
As to VBP1 (UniProt P61758), the log2 fold change is inactive: 0.003.
Then UBE3C (UniProt Q15386), with inactive: 0.037; and UNC119B (UniProt A6NIH7), with inactive: -0.013.
Next, USP25 isoform 3 (UniProt Q9UHP3): inactive: 0.024.
Then UQCR10 (UniProt Q9UDW1), with inactive: 0.036.
Take USP5 (UniProt P45974): the log2 fold change was inactive: 0.033.
Next, UIMC1 (UniProt Q96RL1): inactive: -0.085; USP8 (UniProt P40818): inactive: 0.029; USP24 (UniProt Q9UPU5): inactive: 0.02.
Turning to USP48 isoform 8 (UniProt Q86UV5), the log2 fold change is inactive: 0.106.
Next, USE1 (UniProt Q9NZ43): inactive: -0.006; UBXN4 (UniProt Q92575): inactive: 0.052; UFM1 isoform 2 (UniProt P61960): inactive: -0.009.
As for UNC45A (UniProt Q9H3U1), the log2 fold change was inactive: -0.046.
Next, UTP15 (UniProt Q8TED0): inactive: -0.236; USP39 (UniProt Q53GS9): inactive: -0.045.
Next, VANGL1 (UniProt Q8TAA9): inactive: 0.036; VAMP4 (UniProt O75379): inactive: -0.002.
Take UBR5 (UniProt O95071): the log2 fold change is inactive: -0.027.
With UQCRC2 (UniProt P22695), the log2 fold change is inactive: 0.032.
Then USP22 (UniProt Q9UPT9), with inactive: 0.183; and UNK (UniProt Q9C0B0), with inactive: 0.026; and UBXN10 (UniProt Q96LJ8), with inactive: 0.014.
